Source: ChEMBL document CHEMBL3988442, “University of Dundee, Small-Polar-MMV Screening Library” (2021).

Mtb glucose medium: 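Phenotypic screen: M. tuberculosis growth, glucose 7H9 medium, 3 days; the read-out is not stated. Tested at 50 µM. Direction is inferred from retests: higher values go with more growth inhibition. Of about 69,000 compounds tested this way, about 760 (1.1%) reached 50% or more in at least one test.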
Mtb cholesterol medium: 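Whole-cell growth test on Mycobacterium tuberculosis, read after 4 days in a medium based on cholesterol and the lipid DPPC; the read-out is not stated. Compounds at 50 µM. The record gives no direction; compounds that gave an IC50 in retests scored well above the rest, so higher reads as more growth inhibition. Size under these conditions: about 69,000 compounds, about 370 of them at 50% or above in at least one test.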

Results are given as percent effect. How 0% and 100% were set is not recorded. Most values in the screen are low, and negative values occur. Compounds were drawn at random from those tested, without regard to their results. Two or more numbers in one place are separate tests of the same structure; such repeats can differ widely.

Result for CC(C)C(=O)N1CCCC1C(=O)Nc1cc(C(F)(F)F)ccc1F (centres unmarked) was Mtb glucose medium: -3.176% & 6.565%; Mtb cholesterol medium: -2.627%.
Result for CCCNC(=O)CN1CCN(Cc2csc(C(C)(C)C)n2)CC1 was Mtb glucose medium: 4.049%; Mtb cholesterol medium: -4.828%.
Result for O=C(CN1CCC(c2ccnn2CCO)CC1)NCc1cccs1 was Mtb glucose medium: -15.16%; Mtb cholesterol medium: 8.042%.
Result for CC(Cn1cccn1)NCc1csc(-c2cccs2)n1 (centres unmarked) was Mtb glucose medium: 12.88%; Mtb cholesterol medium: -21.71%.
Result for O=C(c1cnc(-c2ccccc2)s1)N1CCC2(CC1)OCCO2 was Mtb glucose medium: -48.13%; Mtb cholesterol medium: -12.42%.
Result for CCCN1CCC2(Cc3ccccc3NC2=O)C1 (centres unmarked) was Mtb glucose medium: 5.142%; Mtb cholesterol medium: 1.914%.
Result for CC(C)c1nsc(N2CCS(=O)(=O)CC2)n1 was Mtb glucose medium: -12.83%; Mtb cholesterol medium: 18.33%.
Result for CN(C)C(=O)C1CCc2nnc(C(C)(C)C)n21 (centres unmarked) was Mtb glucose medium: -23.64%; Mtb cholesterol medium: -26.65%.
Result for Cc1cc(CNC2(c3ccccc3)CCCCC2)on1 was Mtb glucose medium: 23.21%; Mtb cholesterol medium: 28.83%.
Result for CC(C)OC(=O)N1CCC(c2nnc(Cn3ccnc3)n2C)CC1 was Mtb glucose medium: -9.786%; Mtb cholesterol medium: -0.2691%.
Result for CC(CNc1nccc(C(C)C)n1)Oc1cccnc1 (centres unmarked) was Mtb glucose medium: -14.78%; Mtb cholesterol medium: -0.4421% & 31.97%.
Result for O=C(NC[C@H]1OC[C@@H](NC(=O)c2ccccc2)[C@@H]1O)c1ccncc1 was Mtb glucose medium: 19.48% & 2.276%; Mtb cholesterol medium: 9.135%.
Result for O=C(NC1CCN(C2CC2)CC1)c1cc(Cl)ccc1-n1cnnn1 was Mtb glucose medium: -22.59%; Mtb cholesterol medium: -28.37%.
Result for CC(=O)N1CCC(n2nccc2-c2cnc(N3CCCC3)nc2)CC1 was Mtb glucose medium: 10.49%; Mtb cholesterol medium: -24.47%.
Result for Cc1cc(N2CCCC2Cn2nc(C)cc2C)n2ncnc2n1 (centres unmarked) was Mtb glucose medium: 1.97%; Mtb cholesterol medium: -3.706%.
Result for Cc1nsc(N2CCCN(c3ccc(C#N)cn3)CC2)n1 was Mtb glucose medium: 8.365% & 2.5%; Mtb cholesterol medium: 5.203%.
Result for CC(C)NC(=O)N1CCc2onc(C(=O)Nc3cccnc3)c2C1.O=C(O)C(F)(F)F was Mtb glucose medium: -7.057%; Mtb cholesterol medium: 0.02542%.
Result for N#Cc1cnc2c(F)cc(F)cc2c1NC1CCN(CC(N)=O)CC1 was Mtb glucose medium: -33.28% & -3.89%; Mtb cholesterol medium: -10.12%.
Result for Cl.O=C(Nc1cccc(CNCc2ccsc2)c1)C1CC1 was Mtb glucose medium: -32.81%; Mtb cholesterol medium: -17.05%.
Result for Cc1cc(C)n(CC(C)NCc2cnc3c(C)cccn23)n1 (centres unmarked) was Mtb glucose medium: -5.259%; Mtb cholesterol medium: -2.838%.
Result for CCN1CCN(C(=O)Cc2ccc(S(=O)(=O)C(F)F)cc2)CC1 was Mtb glucose medium: 10.69%; Mtb cholesterol medium: -10.78%.
Result for O=C(CN1CCCC1CCCO)NCc1ccccn1 (centres unmarked) was Mtb glucose medium: 5.416%; Mtb cholesterol medium: -18.64%.
Result for CN(C)CCN1CCC2(CCN(C(=O)c3cccc(F)c3)CC2)C1=O.O=C(O)C(F)(F)F was Mtb glucose medium: -4.463%; Mtb cholesterol medium: -11.27% & -7.879%.
Result for Cc1cc(C)c(C(=O)NC(CN2CCCC2)c2ccccc2)c(=O)[nH]1 (centres unmarked) was Mtb glucose medium: -31.27%; Mtb cholesterol medium: -18.8%.
Result for O=C(c1ccccn1)N(CCO)Cc1cc(Br)ccc1F was Mtb glucose medium: -31.5% & -3.335%; Mtb cholesterol medium: -30.07%.
Result for CCc1nc(NCCCn2cccn2)c2c(n1)c(C)nn2C was Mtb glucose medium: 12.29%; Mtb cholesterol medium: 6.748%.
Result for O=C(O)C(F)(F)F.O=C1CC2(CCCCN2C(=O)c2ccncc2)CN1CC1CC1 (centres unmarked) was Mtb glucose medium: -1.244%; Mtb cholesterol medium: -7.53% & -8.165%.
Result for CC(Nc1ccc(CCN2CCCCC2)cc1)C(=O)N(C)CCC#N (centres unmarked) was Mtb glucose medium: 6.918%; Mtb cholesterol medium: 2.33%.
Result for Cc1noc(C)c1CCC(=O)N1CCOCC1CC(=O)N1CCCC1 (centres unmarked) was Mtb glucose medium: 25.73%; Mtb cholesterol medium: -5.832%.
Result for CC(C)(C)NC(=O)c1cccc(CN2CCS(=O)(=O)CC2)c1 was Mtb glucose medium: -4.148%; Mtb cholesterol medium: -10.9%.
Result for NCCC(=O)N1CCC2(CC1)CN(C(=O)Cc1ccc(Cl)cc1)CCO2 was Mtb glucose medium: 13.57%; Mtb cholesterol medium: -13.14%.
Result for Cc1cc(C(=O)NCc2cccnc2N2CCCC(O)C2)[nH]n1 (centres unmarked) was Mtb glucose medium: -8.011%; Mtb cholesterol medium: 3.396%.
Result for CC1CN(C)CCN1C(=O)c1cnn(-c2cccc(Cl)c2)c1 (centres unmarked) was Mtb glucose medium: -5.127%; Mtb cholesterol medium: -13.3%.
Result for CCC(C(=O)N(C)Cc1cc(COC)[nH]n1)n1cccn1 (centres unmarked) was Mtb glucose medium: -2.646%; Mtb cholesterol medium: -0.9657%.

Once more, the final 4:

structure,Mtb glucose medium,Mtb cholesterol medium
NCCC(=O)N1CCC2(CC1)CN(C(=O)Cc1ccc(Cl)cc1)CCO2,13.57,-13.14
Cc1cc(C(=O)NCc2cccnc2N2CCCC(O)C2)[nH]n1 (centres unmarked),-8.011,3.396
CC1CN(C)CCN1C(=O)c1cnn(-c2cccc(Cl)c2)c1 (centres unmarked),-5.127,-13.3
CCC(C(=O)N(C)Cc1cc(COC)[nH]n1)n1cccn1 (centres unmarked),-2.646,-0.9657